This note sets out measurements from paper PMC11347313.

Sequences of proteins named here, by UniProt entry; tags and fusion partners are left off.
UniProt Q13547: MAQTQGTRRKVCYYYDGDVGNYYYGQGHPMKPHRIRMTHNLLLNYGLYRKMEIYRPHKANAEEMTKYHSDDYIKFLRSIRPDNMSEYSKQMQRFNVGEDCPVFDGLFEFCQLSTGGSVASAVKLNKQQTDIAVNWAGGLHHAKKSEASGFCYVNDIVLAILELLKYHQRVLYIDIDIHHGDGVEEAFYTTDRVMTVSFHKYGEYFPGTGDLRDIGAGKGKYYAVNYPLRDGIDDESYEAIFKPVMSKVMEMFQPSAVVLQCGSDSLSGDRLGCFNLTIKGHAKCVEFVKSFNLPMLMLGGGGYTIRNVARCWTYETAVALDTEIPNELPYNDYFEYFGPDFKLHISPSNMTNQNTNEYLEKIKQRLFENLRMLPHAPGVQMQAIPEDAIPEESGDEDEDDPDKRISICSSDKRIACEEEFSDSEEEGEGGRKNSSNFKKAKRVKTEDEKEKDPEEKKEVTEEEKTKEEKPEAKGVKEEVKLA
UniProt Q92769: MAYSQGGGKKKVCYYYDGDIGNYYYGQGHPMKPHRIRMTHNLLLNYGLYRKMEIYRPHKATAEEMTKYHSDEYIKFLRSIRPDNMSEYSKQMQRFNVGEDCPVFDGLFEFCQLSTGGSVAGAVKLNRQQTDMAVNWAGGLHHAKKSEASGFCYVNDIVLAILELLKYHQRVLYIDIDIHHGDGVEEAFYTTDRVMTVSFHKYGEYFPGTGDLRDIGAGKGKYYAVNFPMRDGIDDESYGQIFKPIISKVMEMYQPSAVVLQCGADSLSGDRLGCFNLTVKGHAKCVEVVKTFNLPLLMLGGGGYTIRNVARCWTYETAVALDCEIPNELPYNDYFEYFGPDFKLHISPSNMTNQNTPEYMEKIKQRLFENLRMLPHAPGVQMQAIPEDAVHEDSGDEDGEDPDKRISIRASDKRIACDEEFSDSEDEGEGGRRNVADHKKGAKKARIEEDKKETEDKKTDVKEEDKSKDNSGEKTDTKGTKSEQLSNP

Assay [1] deals with GST-fused HDAC1 (UniProt Q13547). The experiment in a line: pull-down; GST fusion proteins from E. coli BL21 incubated with 5-8 uL in vitro transcribed/translated ZEB1 in binding buffer, 37 °C, 30 min, five washes, Western blot; only the target purified.
The target in assay [2] is GST-fused HDAC2 (UniProt Q92769). The description is as above.
The target of assay [3] is T1, ZEB1 (zinc finger E-box binding homeobox 1) (human (endogenous in SW480 and HCT116)), P37275.
T1 chain: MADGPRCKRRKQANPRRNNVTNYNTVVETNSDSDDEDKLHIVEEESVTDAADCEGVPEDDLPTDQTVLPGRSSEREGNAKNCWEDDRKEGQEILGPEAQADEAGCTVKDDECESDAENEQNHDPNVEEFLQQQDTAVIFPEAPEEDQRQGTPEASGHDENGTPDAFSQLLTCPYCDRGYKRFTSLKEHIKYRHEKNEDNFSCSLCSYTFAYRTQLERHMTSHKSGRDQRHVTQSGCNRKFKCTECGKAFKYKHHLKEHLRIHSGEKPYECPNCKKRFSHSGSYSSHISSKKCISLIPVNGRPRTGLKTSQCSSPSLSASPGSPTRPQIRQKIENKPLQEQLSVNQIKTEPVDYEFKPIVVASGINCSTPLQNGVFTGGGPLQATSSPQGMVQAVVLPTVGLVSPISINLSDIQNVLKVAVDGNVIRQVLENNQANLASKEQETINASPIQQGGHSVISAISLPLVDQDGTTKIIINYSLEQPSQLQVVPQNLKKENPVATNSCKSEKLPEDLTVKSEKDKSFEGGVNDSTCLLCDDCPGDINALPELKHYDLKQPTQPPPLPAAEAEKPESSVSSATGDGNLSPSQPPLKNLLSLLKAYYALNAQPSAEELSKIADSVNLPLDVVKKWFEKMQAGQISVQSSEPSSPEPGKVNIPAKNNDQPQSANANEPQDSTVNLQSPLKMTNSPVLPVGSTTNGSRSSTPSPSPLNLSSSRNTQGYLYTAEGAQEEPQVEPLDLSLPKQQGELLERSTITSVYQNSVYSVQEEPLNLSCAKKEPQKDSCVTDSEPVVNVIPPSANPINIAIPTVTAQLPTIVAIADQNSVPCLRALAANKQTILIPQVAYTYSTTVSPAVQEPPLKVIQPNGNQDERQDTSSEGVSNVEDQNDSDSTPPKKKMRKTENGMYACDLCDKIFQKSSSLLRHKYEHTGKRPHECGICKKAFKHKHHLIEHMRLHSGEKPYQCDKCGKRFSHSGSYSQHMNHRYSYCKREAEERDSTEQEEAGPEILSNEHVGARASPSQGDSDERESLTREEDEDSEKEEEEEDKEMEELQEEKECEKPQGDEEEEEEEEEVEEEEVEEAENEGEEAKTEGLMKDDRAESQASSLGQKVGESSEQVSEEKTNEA
The experiment in a line: co-IP; whole-cell lysates of SW480 and HCT116 cells, coimmunoprecipitation, Western blotting with antibodies against NuRD components. Conditions: remark: other sources report otherwise.

Results are given in words; binding and its absence hold for the method and conditions named. In cells and extracts the contact can be indirect. Some entries that bind do so weakly or less than the wild type.

B1: in vitro transcribed/translated ZEB1 (protein, UniProt P37275 1-1124)
chain: T1 chain
As for B1, the binding entry in assay [1] and in assay [2] was “binds” in each case.

B2: MTA3, Q9BTC8 1-594 (protein)
chain: MAANMYRVGDYVYFENSSSNPYLIRRIEELNKTASGNVEAKVVCFYRRRDISNTLIMLADKHAKEIEEESETTVEADLTDKQKHQLKHRELFLSRQYESLPATHIRGKCSVALLNETESVLSYLDKEDTFFYSLVYDPSLKTLLADKGEIRVGPRYQADIPEMLLEGESDEREQSKLEVKVWDPNSPLTDRQIDQFLVVARAVGTFARALDCSSSVRQPSLHMSAAAASRDITLFHAMDTLYRHSYDLSSAISVLVPLGGPVLCRDEMEEWSASEASLFEEALEKYGKDFNDIRQDFLPWKSLTSIIEYYYMWKTTDRYVQQKRLKAAEAESKLKQVYIPTYSKPNPNQISTSNGKPGAVNGAVGTTFQPQNPLLGRACESCYATQSHQWYSWGPPNMQCRLCAICWLYWKKYGGLKMPTQSEEEKLSPSPTTEDPRVRSHVSRQAMQGMPVRNTGSPKSAVKTRQAFFLHTTYFTKFARQVCKNTLRLRQAARRPFVAINYAAIRAEYADRHAELSGSPLKSKSTRKPLACIIGYLEIHPAKKPNVIRSTPSLQTPTTKRMLTTPNHTSLSILGKRNYSHHNGLDELTCCVSD
For the molecule B2, the binding result in assay [3] is “no binding”.
